The test in a line: qHTS Assay for Modulators of Lamin A Splicing. The settings on record: HeLa LMNA splicing GFP/RFP minigene ratio, 48 h. In a few lines: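 S3 HeLa cells stably expressing lamin A-EGFP splicing minigene plus DsRed2, 600 cells/well, 48 h compound exposure at 37C. Laser-scanning cytometry; analysed as GFP (500-530 nm)/RFP (575-640 nm) total intensity ratio; 0.5% DMSO vehicle.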
(Quantitative high-throughput screening tests each substance at several concentrations.)

Where [1] appears, read: measured here: RFP viability control channel.
Setting [2] is: measured here: GFP splicing reporter channel.

This is one part of the list. Shown are side measurements of this screen, not its main read-out; they come without a call. Most of these compounds were active or inconclusive in the main read-out, so they are no random draw. Potencies come from curve fits of mixed quality, noted in brackets.

One may read the AC50 as the concentration at which the activity in the assay is half-maximal. With `Cc1nc2c(-c3ccccc3)c(C)[nH]n2c(=O)c1Cl`, the AC50 under setting [1] is 15.8 µM [rising, single point].
As for `Cc1ccc(N(CC(=O)Nc2cc(Cl)ccc2Oc2ccccc2)S(C)(=O)=O)cc1C`, the AC50 by setting is: under setting [2], 15.8 µM [rising, single point]; under setting [1], 15.8 µM [rising, single point].
Take `CCOc1ccc(S(=O)(=O)Nc2nc3ccccc3nc2Nc2ccc(N3CCOCC3)cc2)cc1`: the concentration at half-maximal activity (AC50) under setting [1] is 25.1 µM [rising, single point].
As to `CCCCNC(=O)c1cnn2c(C)c(Cc3c(C)cc(C)cc3C)c(C)nc12`, the AC50 is 35.5 µM [falling, partial curve] under setting [2] and 31.6 µM [falling, partial curve] under setting [1].
Regarding `Brc1cc2c(cc1C1Nc3ccccc3C3C=CCC31)OCO2` (configuration not stated), under setting [1], the AC50 was 35.5 µM [rising, single point].
On the same count and under the same terms, as for `CCN1C(=O)C(CC(=O)Nc2ccc(F)cc2)N(CCc2ccc(OC)cc2)C1=S` (configuration not stated), the figure is 3.55 µM [falling, partial curve, poor fit].
On to `c1ccc(-n2nnnc2-c2cnc(-c3ccncc3)nc2-c2cccs2)cc1`, for which the half-maximal activity concentration (AC50) under setting [1] was 1.78 µM [rising, partial curve].
As to `COc1cc(C)nc(Oc2ccc(OCCOc3ccccc3)nn2)n1`, the AC50 was 3.16 µM [falling, partial curve] under setting [2] and 2 µM [falling, partial curve] under setting [1].
In the case of `COc1ccc(/C=C/C(=O)N(C)c2ccccc2C(=O)O)cc1`, the AC50 reads like this: under setting [2], 0.0141 µM [rising, full curve, poor fit]; under setting [1], 3.98 µM [rising, partial curve, poor fit].
Take `Cc1nc2sc(C(c3ccco3)N3CCN(C(c4ccccc4)c4ccccc4)CC3)c(O)n2n1` (configuration not stated): the AC50 by setting is: under setting [2], 35.5 µM [falling, single point]; under setting [1], 11.2 µM [falling, single point].
As for `Nc1nc2ccccc2n1/N=C/c1ccc([N+](=O)[O-])s1`, the AC50 under setting [2] is 35.5 µM [falling, single point].
As to `Cc1c2cn[nH]c(=O)c2c(C)n1Cc1ccc(F)cc1`, the AC50 under setting [1] was 35.5 µM [rising, single point].
For the molecule `Fc1ccc(NC(=S)NN2CCOCC2)cc1Cl`, the AC50 by setting is: under setting [2], 20 µM [rising, partial curve, poor fit]; under setting [1], 17.8 µM [rising, partial curve, poor fit].
Take `COc1ccc(OC)c(NC(=O)c2cccc(S(=O)(=O)N(Cc3ccccc3)c3ccccc3OC)c2)c1`: the AC50 under setting [1] is 14.1 µM [rising, single point].
As to `CCC(=O)Nc1nnc(SCC(=O)NCCc2ccc(OC)c(OC)c2)s1`, the AC50 was 0.891 µM [rising, full curve, poor fit] under setting [2] and 0.794 µM [rising, full curve, poor fit] under setting [1].
For the molecule `COC(=O)c1sccc1S(=O)(=O)N(CC(=O)Nc1cc(C)cc(C)c1)c1ccc(Cl)cc1`, under setting [1], the AC50 was 11.2 µM [rising, partial curve, poor fit].
Turning to `CC(C)C(=O)Nc1cccc(C(=O)Nc2nncs2)c1`, the AC50 under setting [1] was 0.00794 µM [falling, full curve, poor fit].
Consider `CCCCc1ccc(NC(=S)NCc2cccnc2)cc1`, for which, under setting [1], the half-maximal activity concentration (AC50) is 31.6 µM [rising, single point].
The same measure, in the same setting: the value for `COc1cccc(C2c3c(oc4ccccc4c3=O)C(=O)N2CCCN(C)C)c1OC` (configuration not stated) was 0.0708 µM [falling, full curve, poor fit].
Turning to `C=CCNc1ccc(N2C(=O)C3CCC(C)CC3C2=O)cc1[N+](=O)[O-]` (configuration not stated), the AC50 under setting [2] is 35.5 µM [falling, single point].
Take `CC(/C=N/NC(=O)CSc1nc2ccccc2n1C)=C\c1ccco1`: the AC50 under setting [1] was 15.8 µM [rising, single point].
With `CCOc1ccc2nc(SCC#N)c(C#N)cc2c1`, the AC50 under setting [2] is 0.0316 µM [falling, full curve, poor fit].
As to `S=C(NCCC(c1ccccc1)c1ccccc1)Nc1cccc(Cl)c1`, the AC50 reads like this: under setting [2], 0.0316 µM [falling, single point]; under setting [1], 15.8 µM [falling, single point].
On to `Cc1nc2ccc(S(=O)(=O)NCC(=O)N3CCC(C)CC3)cc2s1`, for which the concentration at half-maximal activity (AC50) under setting [1] is 17.8 µM [rising, single point].
Same read-out and setting: the value for `Cn1c(-c2ccccc2)c[n+]2c1-c1ccccc1C2` was 7.08 µM [rising, full curve].
As for `CC(=O)Nc1ccc(NC(=O)CN2C(=O)CCc3cc(S(=O)(=O)N4CCCCC4)ccc32)cc1`, the concentration at half-maximal activity (AC50) under setting [2] is 0.0316 µM [rising, full curve, poor fit].
As for `N#CCCn1nc(-c2ccccc2)cc1Nc1ccccc1NC(=O)c1cccs1`, the AC50 under setting [1] was 8.91 µM [rising, partial curve].
For `O=c1c(-c2ccc(F)cc2)nc2cnc(Oc3ccccc3)nc2n1Cc1cccs1`, the AC50 under setting [2] was 17.8 µM [falling, partial curve, poor fit].
As to `COCC1CCN(c2nc3nonc3nc2N2CCSCC2)C1` (configuration not stated), the AC50 under setting [2] is 0.0126 µM [falling, full curve, poor fit] and the AC50 under setting [1] is 0.0141 µM [falling, full curve, poor fit].
With `O=C(Nc1ccc(F)cc1)Nc1nnc(SCC(=O)N2CCCCC2)s1`, under setting [1], the AC50 was 39.8 µM [falling, partial curve, poor fit].
As to `COc1ccccc1CNc1ccnc(-c2ccccc2OC)n1`, the AC50 under setting [2] was 3.16 µM [falling, partial curve, poor fit].
As to `CC1CN(Cc2ccccn2)CCC1=O` (configuration not stated), the AC50 under setting [1] is 0.0447 µM [rising, full curve, poor fit].
For the molecule `COc1ccc(/C=N/n2c(SC)nnc2-c2ccccc2)cc1C`, the AC50 under setting [2] was 35.5 µM [rising, single point] and the AC50 under setting [1] is 35.5 µM [rising, single point].
For the molecule `Cc1ccc(S(=O)(=O)N(C)Cc2ccc(C(=O)N/N=C3\CCCC(=O)C3)cc2)cc1`, the half-maximal activity concentration (AC50) under setting [2] is 35.5 µM [rising, single point] and the AC50 under setting [1] is 35.5 µM [rising, single point].
For `NC(=O)CC[C@@H]1NC(=O)[C@@H]2CCCN2C(=O)c2cc([N+](=O)[O-])cc(F)c2NCCC[C@@H](C(N)=O)NC1=O`, the AC50 under setting [2] was 6.31 µM [falling, partial curve, poor fit].
Still for that read-out and setting: the value for `Cc1cc(O)c2c(c1)C(=O)c1cccc(O)c1C2=O` was 0.224 µM [falling, full curve, poor fit]; that for `COc1ccc(CC(=O)OC(C)CN2CCOCC2)cc1` (configuration not stated) was 20 µM [rising, single point].
As to `COc1ccc(N2CCN(C(c3cccc(OC)c3OC)c3nnnn3C3CCCC3)CC2)cc1` (configuration not stated), the AC50 under setting [1] was 4.47 µM [rising, partial curve].
In the case of `CC(=O)N1c2ccccc2CC1C(=O)N1CCN(c2cc(Cl)ccc2C)CC1` (configuration not stated), the AC50 under setting [2] was 35.5 µM [falling, single point].
Regarding `COc1cccc(/C=C/c2nc3ccccc3c(=O)n2-c2ccc(C)c(C)c2)c1OC`, under setting [2], the AC50 was 35.5 µM [falling, partial curve, poor fit].
Take `C/C(=N\NC(=S)Nc1ccc(C)cc1)c1cccc(N)c1`: under setting [1], the AC50 was 1.12 µM [falling, partial curve, poor fit].
As for `C=C1c2cc(C)ccc2NC(=O)N1c1ccccc1`, the AC50 under setting [2] is 4.47 µM [falling, single point].
For `COc1ccc(-c2nnc(SCC(=O)Nc3ccc(C)c(Cl)c3)nc2-c2ccc(OC)c(OC)c2)cc1OC`, the AC50 under setting [1] was 35.5 µM [falling, single point].
Still for that read-out and setting: as for `Cc1ccc(-c2noc(C3CCCN(C(=O)c4ccc(F)cc4F)C3)n2)cc1` (configuration not stated), the figure is 35.5 µM [rising, single point]; as for `O=c1c2ccccc2nc2n1C(CSCc1ccc(Cl)cc1)CS2` (configuration not stated), 12.6 µM [rising, partial curve].
Same read-out and setting: the value for `CCN(CC)c1ccc(/C=N/Nc2nc3ccccc3[nH]2)c(O)c1` was 35.5 µM [falling, single point].
Still for that read-out and setting: as for `Nc1nnc(SCc2coc(-c3ccc(Cl)cc3)n2)s1`, the figure is 35.5 µM [rising, single point]; as for `O=c1[nH]c(Cc2ccccc2Cl)nc2ccccc12`, 2.82 µM [falling, partial curve, poor fit]; as for `CCOc1ccc2c(C)nc(NC3=NC(C)(C)C=C(C)N3)nc2c1`, 17.8 µM [rising, single point].
With `CC(=O)Oc1cc2c(c(C)c1OC(C)=O)CC=C1[C@]3(C)CC[C@]4(C)CC[C@@](C)(C(=O)O)CC4[C@]3(C)CC[C@]12C` (some centres not stated), the AC50 was 6.31 µM [falling, full curve] under setting [2] and 5.62 µM [falling, full curve] under setting [1].
`Cc1cc(C)c(NC(=S)NC(NC(=O)c2ccccc2)C(Cl)(Cl)Cl)c(C)c1` (configuration not stated): under setting [1], the AC50 was 12.6 µM [rising, partial curve].
On the same count and under the same terms, the value for `COC(=O)c1[nH]c2cccc(Cl)c2c1NC(=O)CN1CCCCC1C` (configuration not stated) was 10 µM [rising, single point].
Turning to `COc1ccccc1NC(=O)CCNS(=O)(=O)c1ccc2c(c1)CCN2C(=O)C1CC1`, the AC50 reads like this: under setting [2], 10 µM [falling, partial curve]; under setting [1], 11.2 µM [falling, partial curve].
Turning to `Cc1ccc(C(=O)N2CCCC(CCC(=O)N3CCN(c4ccccn4)CC3)C2)s1` (configuration not stated), the AC50 under setting [2] was 0.891 µM [falling, partial curve, poor fit].
Regarding `CCOC(=O)N1CCN(S(=O)(=O)c2ccc(C(=O)Nc3nc4ccc(F)cc4s3)cc2)CC1`, the AC50 under setting [1] is 35.5 µM [falling, single point].
The same measure, in the same setting: the value for `CCN(Cc1ccccc1)S(=O)(=O)c1ccc(C(=O)Nc2nnc(C3CC3)o2)cc1` was 10 µM [rising, partial curve]; that for `COc1ccc(C2=CC(c3ccc(OC)c(OC)c3)n3nnnc3N2)c(OC)c1` (configuration not stated) was 12.6 µM [rising, partial curve].
Consider `CCOC(=O)Cc1cnc(NC(=O)CSc2nc3ncnc(N)c3[nH]2)s1`, for which the AC50 is, setting by setting: under setting [2], 35.5 µM [rising, partial curve, poor fit]; under setting [1], 31.6 µM [rising, partial curve].

The values are drawn from PubChem BioAssay AID1487 (National Center for Advancing Translational Sciences (NCATS), 2009).
